PubChem BioAssay AID743454 – Peter MacCallum Cancer Centre, 2014

- Purpose: 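Genes whose loss kills vorinostat-resistant colon cancer cells under vorinostat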 (primary screen)
- System: human HCT116-VR colon cancer cells, selected for vorinostat resistance
- Reagent: siRNA pool against human genes, 40 nM siRNA pool
- Time to read-out: vorinostat for 24 h, read-out about 72 h after transfection
- Treatment: vorinostat at 2.5 µM final
- Read-out: 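Two measures, CellTiter-Fluor viability and luminescent caspase 3/7 activity, each as fold change against same-plate mock wells, mean of duplicates, then screen-wide robust z-score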
- Reading the numbers: viability robust z-score: higher = more viable cells than screen typical; caspase robust z-score: higher = more caspase 3/7 activity than screen typical
- Hit rule: 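Hits are knock-downs in viability class RV1/RV2 or caspase class CA1/CA2, excluding ones that killed cells in the no-drug cell-count arm; hits then retested with single siRNAs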
The whole screen tested about 18,000 reagents; below is an unselected part. 450 of all reagents (2.5%) count as active. 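Single biological run; no consistent viability z cut-off exists, so the class columns, not z-scores, define the calls.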

Target gene,viability hit class,caspase hit class,viability robust z-score,caspase robust z-score,Call
TM9SF1 (GeneID 10548),no change,no change,0.08,0.71,inactive
PDLIM4 (GeneID 8572),no change,no change,0.93,0.89,inactive
KRTAP1-1 (GeneID 81851),no change,no change,-0.79,0.58,inactive
DAPL1 (GeneID 92196),no change,no change,-1,2.24,inactive
ATP13A5 (GeneID 344905),no change,no change,-1.81,-0.64,inactive
CCDC3 (GeneID 83643),no change,no change,0.11,-0.6,inactive
DNAJC1 (GeneID 64215),no change,no change,-0.76,-0.82,inactive
ALDH1B1 (GeneID 219),no change,no change,0.52,1.06,inactive
ZNF785 (GeneID 146540),no change,no change,0.26,0.59,inactive
TATDN2 (GeneID 9797),no change,no change,1.02,-0.02,inactive
TNFRSF8 (GeneID 943),no change,no change,-1.38,2.51,inactive
MLEC (GeneID 9761),no change,no change,-1.58,-0.78,inactive
TPT1P8 (GeneID 59347),no change,no change,-0.32,0.56,inactive
MTCP1 (GeneID 4515),no change,no change,0.66,-0.83,inactive
PLTP (GeneID 5360),no change,no change,0.84,-0.6,inactive
SCAND1 (GeneID 51282),no change,no change,-1.38,0,inactive
MTTP (GeneID 4547),no change,no change,0.12,0.21,inactive
LPXN (GeneID 9404),no change,no change,-0.14,-0.43,inactive
LOC284009 (GeneID 284009),no change,no change,0.82,0.08,inactive
GPC6 (GeneID 10082),no change,no change,-1.05,3.12,inactive
S100A7A (GeneID 338324),no change,no change,-1.33,0.55,inactive
TUFT1 (GeneID 7286),no change,no change,-1.7,0.56,inactive
SIN3B (GeneID 23309),no change,no change,1.56,0.78,inactive
LRRTM1 (GeneID 347730),no change,no change,-0.41,0.12,inactive
SENP6 (GeneID 26054),no change,no change,0.15,-0.3,inactive
CD207 (GeneID 50489),no change,no change,-3.04,1.36,inactive
CTH (GeneID 1491),no change,no change,-0.12,-0.66,inactive
UBLCP1 (GeneID 134510),no change,no change,0.76,0.28,inactive
PCED1A (GeneID 64773),no change,no change,-1.44,-0.39,inactive
ITPRID1 (GeneID 223075),no change,no change,-0.43,2.27,inactive
C19orf53 (GeneID 28974),no change,no change,0.62,-0.5,inactive
CCNT1 (GeneID 904),no change,no change,-0.02,-0.23,inactive
CKLF (GeneID 51192),no change,no change,-0.44,0.4,inactive
MRNIP (GeneID 51149),no change,no change,0.08,1.72,inactive
PCBP2 (GeneID 5094),no change,no change,0.04,-0.66,inactive
RFX5 (GeneID 5993),no change,no change,-1.71,2.34,inactive
BAGE3 (GeneID 85318),no change,no change,-1.57,0.98,inactive
TXNDC8 (GeneID 255220),no change,no change,-0.7,0.72,inactive
PSTK (GeneID 118672),no change,no change,-0.24,-0.23,inactive
CKAP5 (GeneID 9793),no change,no change,-4.19,1.13,inactive
EVC2 (GeneID 132884),no change,no change,-0.5,1.07,inactive
EXTL3 (GeneID 2137),no change,no change,0.36,-0.76,inactive
DPH6 (GeneID 89978),no change,no change,-1.05,-0.2,inactive
HIVEP1 (GeneID 3096),no change,no change,-0.47,-1.1,inactive
SPINK4 (GeneID 27290),no change,no change,-0.62,-0.24,inactive
TSNAX (GeneID 7257),no change,no change,-0.48,-1.13,inactive
NTRK1 (GeneID 4914),no change,no change,-1.94,0.24,inactive
IFIT1B (GeneID 439996),no change,no change,-0.5,0.5,inactive
SYT10 (GeneID 341359),no change,no change,0.19,-1.1,inactive
EFNA1 (GeneID 1942),no change,no change,0.31,2.53,inactive
CCNYL1 (GeneID 151195),no change,no change,-0.04,0.48,inactive
RPL41 (GeneID 6171),no change,no change,0.12,2.75,inactive
SPHK1 (GeneID 8877),no change,no change,0.79,0.24,inactive
SLC18A3 (GeneID 6572),no change,no change,-0.74,-1.4,inactive
CETP (GeneID 1071),no change,no change,1.73,0.71,inactive
POLD4 (GeneID 57804),no change,no change,-1.42,-0.64,inactive
DOCK10 (GeneID 55619),no change,no change,1.32,-0.01,inactive
